From PubChem BioAssay AID590 (National Center for Advancing Translational Sciences (NCATS), 2007)
Several values for one entry are separate records, joined by “and”; a condition that tells them apart may be missing. Equal values may be shown once. About 6,500 (11%) of roughly 59,000 compounds were called active. Inconclusive results, whose numbers are uncertain, are shown with a selection of clear calls. Cut-off read from the data, not from the text of the source: active = max dye-equivalent concentration above about 10 nM; inconclusive = mostly about 1.1 nM to 9.6 nM; inactive = weaker than that.

Assay: qHTS Assay for Spectroscopic Profiling in A350 Spectral Region
Settings: Compound autofluorescence, 340/450 nm, Alexa 350 dye-equivalents; stronger effect = higher value
With `CCOC(=O)C1=CN(C)C=C(C(=O)OCC)C1c1ccsc1` the max dye-equivalent concentration was active: 8e-06 M.
In the case of `Cc1nnc(NC2=NCCCCC2)o1`, the max dye-equivalent concentration is reported as inconclusive: 1.6e-09 M.
For `CN(C)CCSS(=O)(=O)O`, the max dye-equivalent concentration was “inactive”.
With `c1ccc(Cc2nnc(-c3ccccc3)o2)cc1` the max dye-equivalent concentration was inconclusive: 3.1e-09 M.
For `O=C(C1CCN(S(=O)(=O)N2CCOCC2)CC1)N1CCOCC1`, the max dye-equivalent concentration was inconclusive: 9.9e-09 M.
With `COCCCNCCOc1cc(C(C)C)ccc1C` the max dye-equivalent concentration was inconclusive: 2.7e-09 M.
For `COc1ccc2c(c1)Cc1sc(NC(=O)c3cccs3)nc1-2`, the max dye-equivalent concentration was inconclusive: 3.3e-09 M.
For `CCc1nc(SCc2cc(Cl)ccc2OC)n[nH]1`, the max dye-equivalent concentration was inconclusive: 1.1e-09 M.
For `COc1ccc(C2C(C(=O)Nc3cc(C)on3)c3ccccc3C(=O)N2C)cc1` (stereo unspecified), the max dye-equivalent concentration was inconclusive: 1.6e-09 M.
In the case of `CCOc1ccc(C(=O)NCC(=O)OC(C)C(=O)NCc2ccco2)cc1OCC` (stereo unspecified), the max dye-equivalent concentration is reported as “inactive”.
In the case of `c1ccc(Oc2cccc(NC3=NCCC3)c2)cc1`, the max dye-equivalent concentration is reported as “inactive”.
With `COCCn1c(SCC(=O)N2CCCc3ccccc32)nc2cccnc21` the max dye-equivalent concentration was inconclusive: 1.6e-09 M.
For `O=C(O)/C=C\c1ccc(O)c(O)c1`, the max dye-equivalent concentration was inconclusive: 3.3e-09 M and active: 1.2e-08 M and inconclusive: 3.2e-09 M.
With `CC(=O)c1ccc(NC2CC(O)C(O)CO2)cc1` (stereo unspecified) the max dye-equivalent concentration was “inactive”.
In the case of `Cc1cc(CC(C)C)n(-c2nc3ccccc3c(=O)n2OCC(N)=O)n1`, the max dye-equivalent concentration is reported as inconclusive: 1.8e-09 M.
With `Cc1cnc(CNc2cc(-c3ccc(C(=O)N(C)C)cc3)ncn2)cn1` the max dye-equivalent concentration was “inactive”.
In the case of `CSc1nnc2c3cc(F)ccc3n(Cc3ccccc3)c2n1`, the max dye-equivalent concentration is reported as active: 2.7e-08 M.
For `CCOC(=O)c1cc2c(ccn2C)n1Cc1ccccc1C`, the max dye-equivalent concentration was inconclusive: 1.4e-09 M.
With `Cc1ccc2[nH]c(=O)c(CN(Cc3ccc4c(c3)OCO4)Cc3nnnn3Cc3ccco3)cc2c1` the max dye-equivalent concentration was inconclusive: 6.9e-09 M.
With `COc1ccccc1N1CCN(CCCCN2C(=O)c3ccccc3C2=O)CC1` the max dye-equivalent concentration was active: 7.9e-06 M.
For `O=C(c1ccc(CS(=O)(=O)Cc2ccc(Cl)cc2)o1)N1CCCC1`, the max dye-equivalent concentration was inconclusive: 2.5e-09 M.
In the case of `COc1ccc(-c2cc(C(F)(F)F)n3nc(C(=O)Nc4cc(C)on4)cc3n2)cc1OC`, the max dye-equivalent concentration is reported as active: 1.2e-08 M.
For `O=C1NC(c2ccncc2)Nc2ccccc21` (stereo unspecified), the max dye-equivalent concentration was active: 1.3e-07 M.
For `Cc1cc(/C(=N/O)C(C)(C)NO)ccc1Cl`, the max dye-equivalent concentration was inconclusive: 7.3e-09 M.
In the case of `c1cncc(-c2nc(-c3ccc4c(c3)OCO4)cs2)c1`, the max dye-equivalent concentration is reported as inconclusive: 2.7e-09 M.
In the case of `CCc1nnc2sc(-c3ccc(NC(=O)CSc4ccc(Cl)cc4)cc3)nn12`, the max dye-equivalent concentration is reported as active: 1.1e-08 M.
In the case of `O=C(COC(=O)c1ccc(S(=O)(=O)N2CCOCC2)cc1)NC1CCCC1`, the max dye-equivalent concentration is reported as inconclusive: 1.4e-09 M.
With `COc1ccc(CCNC(=O)CN(c2ccccc2OC)S(C)(=O)=O)cc1` the max dye-equivalent concentration was active: 9.9e-08 M.
For `COc1ccc(CCn2nnnc2C(CC(C)C)N2CCN(c3ncccn3)CC2)cc1OC` (stereo unspecified), the max dye-equivalent concentration was inconclusive: 2.6e-09 M.
With `Cc1ccc2c(c1)-c1cc(C)nn1C(c1sccc1C)N2` (stereo unspecified) the max dye-equivalent concentration was active: 8.6e-08 M.
With `O=C1CCCc2c1nc(-c1ccccc1)n2O` the max dye-equivalent concentration was inconclusive: 7.3e-09 M.
For `O=C(Nc1ccc(OC(F)(F)F)cc1)C1CCCN(S(=O)(=O)c2cccnc2)C1` (stereo unspecified), the max dye-equivalent concentration was inconclusive: 3e-09 M.
In the case of `c1ccc2c(c1)oc1c(NCCN3CCOCC3)ncnc12`, the max dye-equivalent concentration is reported as inconclusive: 1.1e-09 M.
In the case of `CC1(C)CC(=O)c2cnc(NC(=O)c3ccco3)nc2C1`, the max dye-equivalent concentration is reported as inconclusive: 5.2e-09 M.
With `COc1ccc(S(=O)(=O)n2nc(OC(=O)c3ccco3)cc2N)cc1` the max dye-equivalent concentration was inconclusive: 1.6e-09 M.
For `COc1cccc(Cn2c(=O)cnc3cnc(Nc4cccc(OC)c4)nc32)c1`, the max dye-equivalent concentration was “inactive”.
For `COCCn1c(=O)c(-c2ccc(Cl)cc2)nc2cnc(OCc3ccccc3)nc21`, the max dye-equivalent concentration was inconclusive: 9e-09 M.
In the case of `COC(=O)c1cc(-c2c[nH]c3ccccc23)n[nH]1`, the max dye-equivalent concentration is reported as “inactive”.
With `COc1ccc(/C=C/C(=O)Nc2ccccc2C(=O)O)cc1OC` the max dye-equivalent concentration was inconclusive: 8.6e-09 M.
With `O=C(CN1CCOCC1)Nc1ccc(Br)cn1` the max dye-equivalent concentration was inconclusive: 1.4e-09 M.
With `O=C(Nc1ccc(N2CCN(C(=O)c3ccco3)CC2)c(Cl)c1)c1c(F)c(F)c(F)c(F)c1F` the max dye-equivalent concentration was inconclusive: 1.8e-09 M.
With `CCOC(=O)CCSc1nnc(-c2cccnc2)n1-c1ccccc1OC` the max dye-equivalent concentration was inconclusive: 2.6e-09 M.
With `Cc1ccsc1C(=O)OCC(=O)c1cc2ccccc2o1` the max dye-equivalent concentration was “inactive”.
In the case of `COc1ccc(CCNC(=O)c2c(O)c3c([nH]c2=O)CCCC3)cc1OC`, the max dye-equivalent concentration is reported as inconclusive: 4.1e-09 M.
In the case of `COc1ccc(-c2csc(NC(=O)c3cc(C)on3)c2C#N)cc1OC`, the max dye-equivalent concentration is reported as active: 1.3e-08 M.
In the case of `C=CCN1C(=O)C2C(C(=O)NCc3ccccc3)C3C=CC2(O3)C1C(=O)NC(C)(C)C` (stereo unspecified), the max dye-equivalent concentration is reported as inconclusive: 1.1e-09 M.
